# In article PMC8651733:
# These are yes or no findings as the source states them, for the method shown. Some entries that bind do so weakly or less than the wild type. For some of these results: Sequences can lack the tags named with a protein.
# B1: FABP5, endogenous in mouse macrophages (protein, UniProt Q05816 1-135)
# chain: MASLKDLEGKWRLMESHGFEEYMKELGVGLALRKMAAMAKPDCIITCDGNNITVKTESTVKTTVFSCNLGEKFDETTADGRKTETVCTFQDGALVQHQQWDGKESTITRKLKDGKMIVECVMNNATCTRVYEKVQ
# B2: 3xFlag-FABP5 (pXJ40-3xFlag-FABP5), wild type (protein, UniProt Q05816 1-135)
# chain: B1 chain
# Experiments:
# [1] = biological target: FABP5, endogenous in mouse macrophages (mouse (endogenous in RAW264.7 and BMDMs)) (UniProt Q05816); assay: immunoprecipitation with anti-GSH antibody, immunoblot for FABP5; cells exposed to H2O2 (200 μM) for 15 min, lysed in NP-40 lysis buffer with 20 mM N-ethylmaleimide; anti-glutathione antibody on Protein G magnetic beads overnight at 4 °C; DTT as negative control
# [2] = biological target: FABP5, endogenous in mouse macrophages (mouse (endogenous in RAW264.7 and BMDMs)) (UniProt Q05816); assay: SDS-PAGE under reducing or non-reducing conditions with immunoblot; lysates of cells exposed to H2O2 (indicated concentrations or 200 μM) for 15 min; immunoblot for FABP5
# [3] = biological target: 3xFlag-FABP5 (pXJ40-3xFlag-FABP5), wild type (UniProt Q05816); assay: immunoprecipitation with anti-GSH antibody, immunoblot for FABP5; cells exposed to H2O2 (200 μM) for 15 min, lysed in NP-40 lysis buffer with 20 mM N-ethylmaleimide; anti-glutathione antibody on Protein G magnetic beads overnight at 4 °C; DTT as negative control
# [4] = biological target: 3xFlag-FABP5 (pXJ40-3xFlag-FABP5), wild type (UniProt Q05816); assay: SDS-PAGE under reducing or non-reducing conditions with immunoblot; lysates of cells exposed to H2O2 (indicated concentrations or 200 μM) for 15 min; immunoblot for FABP5
binder,measurement,setting,value
B1,binding,[1],binds
same,binding,[2],binds
B2,binding,[3],binds
same,binding,[4],binds
